According to publication PMC10082778:
Results are given in words; binding and its absence hold for the method and conditions named. For part of these data: In cells and extracts the contact can be indirect. Some results given as binding are weak or reduced against the parent protein; the word gives no strength. For part of these data: Sequences can lack the tags named with a protein.

Sequences of proteins named here, by UniProt entry; tags and fusion partners are left off.
UniProt Q9GZV5: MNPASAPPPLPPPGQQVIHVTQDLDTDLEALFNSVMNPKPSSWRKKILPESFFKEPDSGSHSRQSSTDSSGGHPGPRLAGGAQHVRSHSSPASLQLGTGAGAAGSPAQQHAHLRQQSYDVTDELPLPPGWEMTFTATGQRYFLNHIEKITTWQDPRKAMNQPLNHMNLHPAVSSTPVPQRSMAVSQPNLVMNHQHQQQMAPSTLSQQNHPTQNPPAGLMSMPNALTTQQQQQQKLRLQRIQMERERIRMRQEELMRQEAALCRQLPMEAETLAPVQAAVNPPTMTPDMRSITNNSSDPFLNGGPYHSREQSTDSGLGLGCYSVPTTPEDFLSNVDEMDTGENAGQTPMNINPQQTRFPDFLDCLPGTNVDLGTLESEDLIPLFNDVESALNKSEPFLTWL
UniProt P46937: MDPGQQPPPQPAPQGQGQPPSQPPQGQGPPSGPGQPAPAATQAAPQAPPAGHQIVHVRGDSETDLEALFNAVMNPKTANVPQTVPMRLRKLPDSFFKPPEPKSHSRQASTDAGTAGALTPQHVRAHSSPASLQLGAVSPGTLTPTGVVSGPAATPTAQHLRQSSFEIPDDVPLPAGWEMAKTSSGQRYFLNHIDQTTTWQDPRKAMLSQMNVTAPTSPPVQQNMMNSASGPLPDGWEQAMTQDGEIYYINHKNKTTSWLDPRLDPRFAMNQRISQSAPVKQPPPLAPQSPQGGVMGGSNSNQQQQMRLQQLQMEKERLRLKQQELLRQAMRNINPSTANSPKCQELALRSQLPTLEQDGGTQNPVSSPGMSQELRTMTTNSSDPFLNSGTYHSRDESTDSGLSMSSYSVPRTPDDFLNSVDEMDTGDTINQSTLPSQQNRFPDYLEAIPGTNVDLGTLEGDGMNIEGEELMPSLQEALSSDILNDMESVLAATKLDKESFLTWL

T1: MIB2 fused to maltose binding protein (UniProt Q96AX9)
T1 sequence: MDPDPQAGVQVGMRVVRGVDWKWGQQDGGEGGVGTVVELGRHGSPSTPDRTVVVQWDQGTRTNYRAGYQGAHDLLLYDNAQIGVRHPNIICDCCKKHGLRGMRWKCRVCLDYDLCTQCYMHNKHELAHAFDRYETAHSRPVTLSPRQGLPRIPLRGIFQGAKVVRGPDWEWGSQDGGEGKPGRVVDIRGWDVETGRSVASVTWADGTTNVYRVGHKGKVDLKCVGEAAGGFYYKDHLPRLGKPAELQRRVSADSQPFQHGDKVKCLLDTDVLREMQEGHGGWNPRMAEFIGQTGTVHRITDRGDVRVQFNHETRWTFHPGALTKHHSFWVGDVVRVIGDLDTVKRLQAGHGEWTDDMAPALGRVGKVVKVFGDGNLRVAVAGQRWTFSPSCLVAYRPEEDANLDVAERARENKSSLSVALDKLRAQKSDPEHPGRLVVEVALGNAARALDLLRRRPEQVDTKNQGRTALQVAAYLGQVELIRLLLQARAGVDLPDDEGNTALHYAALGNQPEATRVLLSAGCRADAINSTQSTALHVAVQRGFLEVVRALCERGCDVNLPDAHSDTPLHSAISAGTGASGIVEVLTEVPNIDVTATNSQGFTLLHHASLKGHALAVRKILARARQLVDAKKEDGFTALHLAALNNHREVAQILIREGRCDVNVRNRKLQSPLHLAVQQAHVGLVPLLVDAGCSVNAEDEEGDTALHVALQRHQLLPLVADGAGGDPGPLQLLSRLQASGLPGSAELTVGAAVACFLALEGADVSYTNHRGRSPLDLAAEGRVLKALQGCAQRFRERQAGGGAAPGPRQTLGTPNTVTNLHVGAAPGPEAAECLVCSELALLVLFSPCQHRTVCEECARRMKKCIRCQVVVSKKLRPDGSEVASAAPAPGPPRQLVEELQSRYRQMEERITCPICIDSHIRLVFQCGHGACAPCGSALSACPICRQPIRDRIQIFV

B1: FAT1 intracellular domain fused with glutathion-S-transferase (domain or fragment, UniProt Q14517 4203-4588)
chain: RKMISRKKKHQAEPKDKHLGPATAFLQRPYFDSKLNKNIYSDIPPQVPVRPISYTPSIPSDSRNNLDRNSFEGSAIPEHPEFSTFNPESVHGHRKAVAVCSVAPNLPPPPPSNSPSDSDSIQKPSWDFDYDTKVVDLDPCLSKKPLEEKPSQPYSARESLSEVQSLSSFQSESCDDNGYHWDTSDWMPSVPLPDIQEFPNYEVIDEQTPLYSADPNAIDTDYYPGGYDIESDFPPPPEDFPAADELPPLPPEFSNQFESIHPPRDMPAAGSLGSSSRNRQRFNLNQYLPNFYPLDMSEPQTKGTGENSTCREPHAPYPPGYQRHFEAPAVESMPMSVYASTASCSDVSACCEVESEVMMSDYESGDDGHFEEVTIPPLDSQQHTEV

Tests used:
[1] = molecular target: FAT1 (endogenous wild-type, HUVECs) (human (endogenous in HUVECs)) (UniProt Q14517); assay: co-IP; endogenous FAT1 immunoprecipitated with anti-FAT1 antibody from HUVEC lysates (150 mM NaCl, 25 mM Tris-HCl pH 7.4, 1 mM EDTA, 1% NP-40, 5% glycerol), overnight at 4 °C, A/G-Sepharose; cells transfected with control siRNA or siRNA against FAT1 or MIB2; IgG as control
[2] = molecular target: T1, MIB2 fused to maltose binding protein; assay: pull-down; MBP pull-down: MBP-MIB2 as bait with one prey (FAT1^ICD-GST or His-tagged YAP), 10 µM each in PBS, 1 h at room temperature, then 2 h at 4 °C with MBP binding beads; eluted with 10 mM maltose; immunoblot; both purified

Row | Molecule | binding [1] | binding [2]
1 | TAZ (endogenous, HUVECs) (from UniProt Q9GZV5 1-400) | binds | 
2 | YAP (endogenous, HUVECs) (from UniProt P46937 1-504) | binds | 
3 | B1 |  | binds
